## Primary screen of a compound library

Sequences of proteins named here, by UniProt entry; tags and fusion partners are left off.
UniProt E9BF75, entry or part of it: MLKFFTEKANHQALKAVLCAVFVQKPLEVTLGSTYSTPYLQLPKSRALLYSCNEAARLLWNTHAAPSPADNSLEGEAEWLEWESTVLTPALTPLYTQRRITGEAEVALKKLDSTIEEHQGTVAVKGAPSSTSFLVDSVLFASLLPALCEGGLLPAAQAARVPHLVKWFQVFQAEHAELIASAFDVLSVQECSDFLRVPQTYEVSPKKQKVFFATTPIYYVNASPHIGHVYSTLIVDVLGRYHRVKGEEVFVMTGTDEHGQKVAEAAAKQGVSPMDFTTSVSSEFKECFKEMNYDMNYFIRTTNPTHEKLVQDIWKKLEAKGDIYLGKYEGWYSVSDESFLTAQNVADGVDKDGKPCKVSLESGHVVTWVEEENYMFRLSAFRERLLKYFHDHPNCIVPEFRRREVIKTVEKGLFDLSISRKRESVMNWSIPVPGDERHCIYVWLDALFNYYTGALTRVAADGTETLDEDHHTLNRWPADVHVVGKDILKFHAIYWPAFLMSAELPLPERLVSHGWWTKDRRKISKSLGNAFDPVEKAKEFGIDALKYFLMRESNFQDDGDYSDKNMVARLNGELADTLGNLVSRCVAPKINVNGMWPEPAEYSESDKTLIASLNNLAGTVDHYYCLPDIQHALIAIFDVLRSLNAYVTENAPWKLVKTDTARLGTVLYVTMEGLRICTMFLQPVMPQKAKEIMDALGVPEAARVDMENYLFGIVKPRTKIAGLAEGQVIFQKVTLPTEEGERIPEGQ

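Methionyl-tRNA synthetase (putative), Leishmania donovani (UniProt E9BF75). Primary screen of methionyl-tRNA synthetase; the read-out is not stated. The test concentration is not given. The values are filed as inhibition. Of about 68,000 compounds tested this way, about 24 (0.035%) reached 50% or more in at least one test.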

Results are percentages, as filed.
How 0% and 100% were set is not recorded. Most values in the screen are low, and negative values occur.
The compounds are a random part of those screened.

compound | Inhibition
CC(NC(=O)NCCCc1n[nH]c(N)c1C#N)c1cccc(Cl)c1 (stereo not drawn) | 25.07
CNS(=O)(=O)c1ccc(CNC(=O)C2CN(C)CCO2)cc1 (stereo not drawn) | 19.62
Cc1nc(CN2CCC3(CCCN(Cc4ccoc4)C3)C2=O)cs1 (stereo not drawn) | -5.753
CC(C)C(N)C1=N/C(=C2\N=CN=N2)NO1 (stereo not drawn) | 17.69
CCN(CC)C(=O)C1CCN(c2ccc(Cl)cc2C#N)CC1 | 1.199
O=C1CO[C@H]2CN(C3CCOCC3)C[C@H]2N1Cc1ccc(F)cc1 | -3.051
O=S1(=O)NC(C2CCCN(S(=O)(=O)N3CCCC3)C2)=Nc2ccccc21 (stereo not drawn) | 9.302
CN(C)C(=O)CN1CCC2(COCc3cnc(N4CCOCC4)nc32)C1 (stereo not drawn) | 8.955
CC(C)(NC(=O)c1scnc1Cl)c1ccccc1 | 8.242
COCCN1CCN(CCCS(=O)(=O)c2ccccc2)CC1C (stereo not drawn) | 8.571
NC(=O)c1c[nH]nc1NCc1ccc2c(c1)OCO2 | -17.16
CC(=O)NCCc1cc2nc(-c3ccncc3)ccn2n1 | 6.977
Cc1ccccc1CC(C)(C)NC(=O)c1cccc(OCC(N)=O)c1 | 13.32
CC(c1ccc(F)c(F)c1)N(C)CCS(=O)(=O)CCC(N)=O (stereo not drawn) | -1.362
CN1C(=O)C2(CCCN(C(=O)c3ccc(=O)n(C)n3)C2)c2ccccc21 (stereo not drawn) | 9.044
Cc1ccc(NC(=O)NCCc2ccncc2C)c(N(C)C)n1 | 12.24
CN(C)C(=O)CN1CCOCC2(C1)CN(c1ncccn1)CCO2 (stereo not drawn) | 1.558
CCN(C)Cc1cccc(CNC(=O)CSCc2ccccn2)c1 | 6.349
CCc1nn(C)c2[nH]nc(NC(=O)c3ccccc3COC)c12 | 12.57
CN1CCN(C2CCN(Cc3nnc(C(C)(C)C)o3)CC2)C1=O | 15.47
COc1cccc(OC)c1CN1CCC2(CC(Nc3ccncn3)C2)C1 (stereo not drawn) | 16.43
CN(C)c1cccc(C(=O)Nc2ccn(CCc3ccncc3)n2)c1 | 9.244
Cc1cnc2n(c1=O)C(CC(=O)NCc1ccc(F)cc1)CS2 (stereo not drawn) | 9.577
CCc1ccc(C(=O)NC2CCN(c3cnn(C)c3)C2=O)o1 (stereo not drawn) | 9.294
Cc1nn(C)c(N2CCOCC2)c1CNC(c1cccs1)C(C)C (stereo not drawn) | 11.02
Cc1ccc(C(=O)N2CCC3(CC2)c2ccccc2[C@@H](N)[C@@H]3O)c(=O)[nH]1 | 6.266
COc1ccc2c(c1)CN(C)C(=O)CCN2CC(O)C(F)(F)F (stereo not drawn) | -4.658
CC[C@@H](C)[C@@H](N)C(=O)Nc1cccc(-c2cnc(N(C)CCO)nc2)c1 | 7.039
Cc1noc(C2CCCN(Cn3cc(Cl)cn3)C2)n1 (stereo not drawn) | 8.683
Cn1cnnc1C1CCCN(c2nc3ccccc3o2)C1 (stereo not drawn) | 6.272
CCc1nnc(CN(C)Cc2cccc(C(=O)Nc3cnn(C)c3)c2)o1 | 6.72
Cc1ccc(C(=O)N2CCN(CCc3cccs3)CC2)c(=O)[nH]1 | 12.88
COCCn1cc2c(n1)C(CNCc1ccc(F)cc1)OCC2 (stereo not drawn) | 20
O=C(NCc1ccco1)N1CCCCC1c1nc(-c2ccncc2)no1 (stereo not drawn) | 16.49
CCCNCc1cn(C)nc1-c1cccnc1 | 10.04
O=C(NCCSCc1cccs1)C1CCCN(C(=O)N2CCCC2)C1 (stereo not drawn) | 12.94
Cc1noc(C(C)N(C)CC(=O)NCCc2ccc(Cl)cc2)n1 (stereo not drawn) | 6.542
CC(=O)N1CCn2c(-c3cccc(F)c3)cnc2C12CCNCC2 | 16.79
CSCCC(=O)N1CCC(c2nnc(CN(C)CCO)n2C)CC1 | 13.97
COCc1nnc(-c2cccc(C(=O)N(C(C)C)C3CCC3)c2)o1 | 10.18
c1cnc2c(c1)cc([C@H]1CCCO1)n2CCN1CCCC1 | 15.1
Cc1cnn(CC2CN(Cc3cccc(C(N)=O)c3)CCO2)c1 (stereo not drawn) | 19.66
CCC(CC)NCC(C)Oc1cccnc1 (stereo not drawn) | -1.117
Cc1noc(C)c1CN1C[C@H]2CN(Cc3cccc(F)c3)C[C@H]2C1 | 14.03

For reference, 5 entries once more:

compound,Inhibition
Cc1noc(C)c1CN1C[C@H]2CN(Cc3cccc(F)c3)C[C@H]2C1,14.03
Cc1ccc(C(=O)N2CCN(CCc3cccs3)CC2)c(=O)[nH]1,12.88
Cc1cnc2n(c1=O)C(CC(=O)NCc1ccc(F)cc1)CS2 (stereo not drawn),9.577
c1cnc2c(c1)cc([C@H]1CCCO1)n2CCN1CCCC1,15.1
CC(=O)N1CCn2c(-c3cccc(F)c3)cnc2C12CCNCC2,16.79

The values are deposited in ChEMBL (CHEMBL3988442, “University of Dundee, Small-Polar-MMV Screening Library” (2021)).